Source: ChEMBL document CHEMBL3988442, “University of Dundee, Small-Polar-MMV Screening Library” (2021).

Chains of the proteins cited; added tags and fusions are not shown. Residues count along the entry.
UniProt A4I591, 1-473: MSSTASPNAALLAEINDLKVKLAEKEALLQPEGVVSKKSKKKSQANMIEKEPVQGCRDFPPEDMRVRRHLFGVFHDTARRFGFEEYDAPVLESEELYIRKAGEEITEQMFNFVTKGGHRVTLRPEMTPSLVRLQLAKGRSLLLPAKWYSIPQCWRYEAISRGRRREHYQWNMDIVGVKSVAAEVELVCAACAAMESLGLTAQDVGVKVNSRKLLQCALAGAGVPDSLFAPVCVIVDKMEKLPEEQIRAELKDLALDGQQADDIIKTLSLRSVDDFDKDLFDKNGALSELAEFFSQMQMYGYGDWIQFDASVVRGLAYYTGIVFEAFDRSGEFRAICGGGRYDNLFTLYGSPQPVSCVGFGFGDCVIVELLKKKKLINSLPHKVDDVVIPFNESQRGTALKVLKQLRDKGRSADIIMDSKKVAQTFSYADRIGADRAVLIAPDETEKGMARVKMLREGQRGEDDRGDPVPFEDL
UniProt Q8IDJ8, 1-583: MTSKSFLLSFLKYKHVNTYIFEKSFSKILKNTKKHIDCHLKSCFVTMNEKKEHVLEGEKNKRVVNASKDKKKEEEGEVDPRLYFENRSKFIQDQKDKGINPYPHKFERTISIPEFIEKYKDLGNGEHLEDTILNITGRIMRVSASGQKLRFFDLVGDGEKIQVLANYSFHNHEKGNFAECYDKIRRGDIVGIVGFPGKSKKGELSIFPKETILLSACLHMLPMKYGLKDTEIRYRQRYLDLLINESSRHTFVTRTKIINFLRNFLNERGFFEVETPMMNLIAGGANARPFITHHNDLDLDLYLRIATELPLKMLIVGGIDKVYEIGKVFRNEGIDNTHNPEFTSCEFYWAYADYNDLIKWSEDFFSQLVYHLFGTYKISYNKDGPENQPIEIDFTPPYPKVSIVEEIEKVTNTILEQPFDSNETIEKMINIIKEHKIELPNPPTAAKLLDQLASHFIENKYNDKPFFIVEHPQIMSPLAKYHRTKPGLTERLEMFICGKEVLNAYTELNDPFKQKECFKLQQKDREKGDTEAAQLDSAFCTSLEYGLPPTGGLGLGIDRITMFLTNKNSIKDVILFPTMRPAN

Values are the deposited “Percent Effect”, in %.
How 0% and 100% were set is not recorded. Most values in the screen are low, and negative values occur.
Compounds were drawn at random from those tested, without regard to their results.

LiHisRS: 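Histidine-tRNA ligase, Leishmania infantum (UniProt A4I591). Enzyme assay of histidyl-tRNA synthetase; the read-out is not stated. Compounds at 30 µM. Direction is inferred from retests: higher values go with stronger inhibition. The assay is labelled LdHisRS but filed under L. infantum. About 69,000 compounds were tested under these conditions; 0.6% (about 410) showed 50% or more at least once.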
PfKRS1: 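Enzyme assay of the cytosolic lysyl-tRNA synthetase in 384-well plates, read by luminescence. Target: Lysine-tRNA ligase, Plasmodium falciparum 3D7 (UniProt Q8IDJ8). Compounds at 30 µM. Direction is inferred from only a few compounds that gave an IC50; most scored high, so higher reads as stronger inhibition. About 69,000 compounds were tested under these conditions; 0.071% (about 49) showed 50% or more at least once.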

Result for CC(C)C1SCC(=O)Nc2c1cnn2C(C)C (centres unmarked) was LiHisRS: 21.05%; PfKRS1: 3.952%. O=C1N(c2cccnc2)CCC12CCCN(Cc1ccoc1)C2 (centres unmarked) read LiHisRS: 34.29%; PfKRS1: 4.81%. With Cc1noc(NC(=O)c2ccc(C)c(F)c2)n1 the screen gave LiHisRS: 23.6%; PfKRS1: 4.658%. For Cc1noc(COCC(=O)N2CCCC(c3nccs3)C2)n1 (centres unmarked) the result was LiHisRS: 11.43%; PfKRS1: 1.217%. With COc1ccc(CNCc2cn(C)nc2C)cc1 the screen gave LiHisRS: 12.37%; PfKRS1: 2.74%. For CN(Cc1ccc(Cl)s1)C1CCCN(c2cccnn2)C1 (centres unmarked) the result was LiHisRS: 17.14%; PfKRS1: 5.351%.

Result for CCc1ncc2c(n1)CN(Cc1cnc(C)cn1)CC2 was LiHisRS: 29.63%; PfKRS1: 8.293%. COCCN(Cc1sccc1C)C(=O)C1CCCN(C(N)=O)C1 (centres unmarked) gave LiHisRS: 15.56%; PfKRS1: 3.994%. With Cc1[nH]ccc1C(=O)N[C@H]1CN(CCO)C[C@@H]1C1CC1 the screen gave LiHisRS: 6.579%; PfKRS1: 0.9079%. With CCCc1cc(=O)n(CC(N)=O)c(-n2nc(C)cc2C)n1 the screen gave LiHisRS: 22.33%; PfKRS1: -0.4042%. Result for COCC1CC2(CCN(Cc3ccccn3)CC2)CN1C(C)C (centres unmarked) was LiHisRS: 5.882%; PfKRS1: -0.4037%. With Cc1cnc(C(=O)N2CC(=O)N(c3ccccc3Cl)CC2C)cn1 (centres unmarked) the screen gave LiHisRS: 17.7%; PfKRS1: -1.681%.

Result for Cn1cnc(-c2cc(C(=O)N3CCOCC3)c3ccccn23)c1 was LiHisRS: 15.04%; PfKRS1: -0.01164%. Result for Cc1ccc(NC(=O)Nc2c[nH]c(=O)[nH]c2=O)c(Cl)c1 was LiHisRS: 22.83%; PfKRS1: 5.194%. Cc1cccc(-n2nc(CC(C)C)nc2CCn2ccc(=O)[nH]c2=O)c1 gave LiHisRS: 17.33%; PfKRS1: 6.096%. For CSc1ccc(NCc2csc(C)n2)cc1F the result was LiHisRS: 8.219%; PfKRS1: -0.2719%. For CCOCC1CN(C(=O)c2cccn2C)Cc2cnn(CC3CC3)c21 (centres unmarked) the result was LiHisRS: 10.68%; PfKRS1: 2.045%. Result for COc1ccc(N2Cc3nc(N4CCCC4)ncc3C2=O)cc1Cl was LiHisRS: 7.5%; PfKRS1: 1.298%.

Result for O=C(NCc1nnc2n1C(C(=O)NC1CC1)CC2)c1ccc(Cl)cc1Cl (centres unmarked) was LiHisRS: 4.138%; PfKRS1: -2.591%. For CC(C)N(CC(N)=O)Cc1cccc(C(F)(F)F)c1 the result was LiHisRS: 22.08%; PfKRS1: 8.883%. With O=C([C@H]1CC[C@@H]2[C@@H](CCN2C2CCCC2)O1)N1CCOCC1 the screen gave LiHisRS: 25%; PfKRS1: 1.622%. CC(C)C(=O)Nc1cc(C(=O)NC2CC(C)(C)NC(C)(C)C2)nn1C read LiHisRS: 32.35%; PfKRS1: 5.676%. CN(Cc1ccco1)C[C@H]1OC[C@@H]2CCN(Cc3ccncc3)C[C@@H]21 gave LiHisRS: 26.03%; PfKRS1: 5.317%. Result for Cc1cc(Br)c(O)c(C(=O)N2CCC(CN3CCCCCC3)CC2)c1 was LiHisRS: 8.901%; PfKRS1: 2.137%.

COC1CN(C(=O)OCC(C)C)CCC(=O)N(C)c2ccccc21 (centres unmarked) gave LiHisRS: 24.49%; PfKRS1: 1.785%. With Cc1nccn1-c1cc(CNC(=O)N2CCSCC2)ccn1 the screen gave LiHisRS: 12.9%; PfKRS1: 12.48%. c1ccc(CN2CCc3c(COCC4CC4)cncc3C2)nc1 gave LiHisRS: 30.28%; PfKRS1: 0.7416%. Result for O=C(c1nc2c(s1)CCCN2CC1CC1)N1CCCC1 was LiHisRS: 40%; PfKRS1: 3.166%. For Cc1cc(C)nc(Nc2cccc(C3CCCN(CC4CC4)C3)n2)n1 (centres unmarked) the result was LiHisRS: 15.62%; PfKRS1: 4.499%. O=C(CN1C[C@H]2C[C@H](OCc3ccccc3)C[C@H]2C1)N1CCOCC1 gave LiHisRS: 15.71%; PfKRS1: -0.9461%.

With COc1ccccc1Oc1cncc(C2CCCN(C)C2)n1 (centres unmarked) the screen gave LiHisRS: 6.207%; PfKRS1: 0.6837%. Cc1cccc(N(CCC(N)=O)C(=O)c2cnccn2)c1 read LiHisRS: 5%; PfKRS1: 4.928%. CS(=O)(=O)NC(=O)c1nnn(-c2cccc(F)c2)c1C1CC1 read LiHisRS: 8.036%; PfKRS1: 0.8441%. With CN1CCN(C2CCN(CCOc3cccc(Cl)c3)CC2)C1=O the screen gave LiHisRS: 10.43%; PfKRS1: -0.128%. CCN1CCN(CCC(=O)NC2CC(c3cccc(Cl)c3)C2)CC1 (centres unmarked) read LiHisRS: 18.31%; PfKRS1: 2.885%. COCC1CN(Cc2ccc(C)o2)Cc2cn(C)nc21 (centres unmarked) gave LiHisRS: 18.87%; PfKRS1: 5.577%.

Result for CC(c1ncc(-c2ccccc2)o1)N1CCN(C(=O)C(C)(C)C)CC1 (centres unmarked) was LiHisRS: -1.205%; PfKRS1: -3.739%. Cn1cc(CN2CCCn3cnc(CN4CCCC4=O)c3C2)cn1 read LiHisRS: 7.547%; PfKRS1: 3.299%.

Repeated from the top, 4 entries:

CC(C)C1SCC(=O)Nc2c1cnn2C(C)C (centres unmarked) read LiHisRS: 21.05%; PfKRS1: 3.952%.
O=C1N(c2cccnc2)CCC12CCCN(Cc1ccoc1)C2 (centres unmarked) read LiHisRS: 34.29%; PfKRS1: 4.81%.
Cc1noc(NC(=O)c2ccc(C)c(F)c2)n1 read LiHisRS: 23.6%; PfKRS1: 4.658%.
Cc1noc(COCC(=O)N2CCCC(c3nccs3)C2)n1 (centres unmarked) read LiHisRS: 11.43%; PfKRS1: 1.217%.